For at least one compound, name, drawing or mass did not settle the structure.
Tested on: MC38 cells
Experiment: MC38 subcutaneous tumor in CD11c-DTR/EGFP mice with DT
Assay type: in vivo, mouse
Conditions: Zol plus DT (diphtheria toxin)

## O=P(O)(O)C(O)(Cn1ccnc1)P(=O)(O)O [zoledronic acid]
  anti-tumor effect of Zol when DC cells are cleared by DT: offset

Source: patent US20210008084A1, “MEVALONATE PATHWAY INHIBITOR AND PHARMACEUTICAL COMPOSITION THEREOF” (TSINGHUA UNIVERSITY, priority 2017, published 2021)
